# According to PubChem BioAssay (EPA / NIEHS):
# Chains of the proteins cited; added tags and fusions are not shown.
# UniProt P04637, whole entry, looked up: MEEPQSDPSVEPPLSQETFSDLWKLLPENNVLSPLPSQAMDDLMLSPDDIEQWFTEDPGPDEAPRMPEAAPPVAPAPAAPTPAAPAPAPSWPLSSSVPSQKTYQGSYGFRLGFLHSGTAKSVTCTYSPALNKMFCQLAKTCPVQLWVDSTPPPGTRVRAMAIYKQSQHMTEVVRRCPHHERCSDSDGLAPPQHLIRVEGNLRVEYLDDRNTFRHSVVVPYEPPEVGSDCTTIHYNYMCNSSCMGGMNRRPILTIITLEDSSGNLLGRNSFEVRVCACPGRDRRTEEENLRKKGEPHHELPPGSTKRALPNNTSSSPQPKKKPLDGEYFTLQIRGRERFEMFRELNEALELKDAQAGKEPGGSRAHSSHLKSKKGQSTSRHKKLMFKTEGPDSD
# Inconclusive results, whose numbers are uncertain, are shown with a selection of clear calls. Potencies beside an inconclusive call are fits to weak or partial responses and may not hold up. Activity calls are given as the source filed them. How the source made its calls: active means hit-call score of the fitted dose curve at least 0.9, where 1 is the maximum; inconclusive means response in the unintended direction; inactive means score below 0.9.
# Target: Cellular tumor antigen p53 (Homo sapiens) (UniProt P04637)
# Test: TOX21_p53_BLA_p5_ratio: Tox21 HCT-116 p53 Agonism Beta-lactamase Assay, Ratio, Phase 5 (AID 2283599)
# Method in brief: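 HCT-116 cells carrying a p53-inducible beta-lactamase reporter were seeded at 4000 cells/well and dosed after 5 h with compound in DMSO (217-fold dilution). After 16 h at 37C, CCF4-AM substrate was added for 2 h, and the 460/530 nm emission ratio was scored as gain-of-signal versus DMSO.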
Compound,outcome,AC50
Clc1ccc2cc3ccccc3cc2c1,inactive,
CCCCCCCC,inactive,
CCOC(=O)NCCC[Si](OCC)(OCC)OCC,,inconclusive: 46.1 µM
Cc1onc(-c2ccccc2)c1C(=O)N[C@@H]1C(=O)N2[C@@H]1SC(C)(C)[C@@H]2C(=O)O,,inconclusive: 23 µM
CCN(Cc1ccccc1)c1ccccc1,inactive,
O=C1C2CC3CC1CC(O)(C3)C2,,inconclusive: 23 µM
Nc1nc2c(ncn2CCC(CO)CO)c(=O)[nH]1,,inconclusive: 23 µM
NS(=O)(=O)c1ccccc1OC(F)(F)F,,inconclusive: 46.1 µM
CCC(C(=O)OCCOCCN(CC)CC)c1ccccc1 (stereo not drawn),inactive,
Cc1ccccc1C(N)=O,,inconclusive: 46.1 µM
Nc1ccc2ccccc2c1S(=O)(=O)O,inactive,
CC(N)C(=O)OC(C)(C)Cc1ccc(Cl)cc1 (stereo not drawn),,inconclusive: 23 µM
COC(OC)OC,,inconclusive: 45.5 µM
COc1ccc(C)cc1,,inconclusive: 46.1 µM
CCCCC(=O)OCC(=O)[C@H]1[C@H](C)C[C@H]2[C@@H]3C[C@H](F)C4=CC(=O)C=C[C@]4(C)[C@@]3(F)[C@@H](O)C[C@@]21C,,inconclusive: 23 µM
CC(=O)OC[C@H]1O[C@@H](n2ncc(=O)[nH]c2=O)[C@H](OC(C)=O)[C@@H]1OC(C)=O,,active: 2.02 µM
Nc1ncnc(Nc2ccccc2)n1,,inconclusive: 23 µM
CCCCCCCCCCCCCCCC(=O)OC[C@@H](NC(=O)C(Cl)Cl)[C@H](O)c1ccc([N+](=O)[O-])cc1,,inconclusive: 23 µM
COc1ccc(S(=O)(=O)Nc2nnc(CC(C)C)s2)cc1,inactive,inconclusive: 23 µM
CCCNCC(O)COc1ccccc1C(=O)CCc1ccccc1 (stereo not drawn),,inconclusive: 31.7 µM
O=C(O)c1ccc(CO)o1,,inconclusive: 46.8 µM

# Rewritten bar-delimited: 4 of the compounds above.
Compound | outcome | AC50
Cc1ccccc1C(N)=O |  | inconclusive: 46.1 µM
Nc1ccc2ccccc2c1S(=O)(=O)O | inactive | 
CC(N)C(=O)OC(C)(C)Cc1ccc(Cl)cc1 (stereo not drawn) |  | inconclusive: 23 µM
COC(OC)OC |  | inconclusive: 45.5 µM

# System: not listed separately
# Test: TOX21_p53_BLA_p5_viability: Viability Assessment in the Tox21 HCT-116 p53 Agonism Beta-lactamase Assay, Phase 5 (AID 2283600)
# Method in brief: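 After the 460/530 nm beta-lactamase measurement, the wells received an ATP-detection luciferase reagent; signal was read 30 min later at RT. Compound treatment lasted 16 h on cells pre-incubated 5 h post-seeding.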
Compound,AC50,outcome
Cc1onc(-c2ccccc2)c1C(=O)N[C@@H]1C(=O)N2[C@@H]1SC(C)(C)[C@@H]2C(=O)O,inconclusive: 23 µM,
CC(=O)c1ccc2c(c1)N(CCCN(C)C)c1ccccc1S2,inconclusive: 0.613 µM,
CN1C[C@H](C(=O)N[C@]2(C)O[C@@]3(O)[C@@H]4CCCN4C(=O)[C@H](Cc4ccccc4)N3C2=O)C[C@@H]2c3cccc4[nH]cc(c34)C[C@H]21,inconclusive: 23 µM,
Clc1ccccc1-c1nc(-c2ccncc2)no1,,inactive
O=C1C2CC3CC1CC(O)(C3)C2,inconclusive: 23 µM,
O=C1OC(=O)C2CCCCC12 (stereo not drawn),inconclusive: 13.9 µM,
CCC(C(=O)OCCOCCN(CC)CC)c1ccccc1 (stereo not drawn),inconclusive: 5.01 µM,
N[C@@H](C(=O)N[C@@H]1C(=O)N2C(C(=O)O)=C(CSc3cn[nH]n3)CS[C@H]12)c1ccc(O)cc1,,inactive
CC(=O)OC[C@H]1O[C@@H](n2ncc(=O)[nH]c2=O)[C@H](OC(C)=O)[C@@H]1OC(C)=O,,inactive
Nc1ncnc(Nc2ccccc2)n1,inconclusive: 23 µM,
CCCCCCCCCCCCCCCC(=O)OC[C@@H](NC(=O)C(Cl)Cl)[C@H](O)c1ccc([N+](=O)[O-])cc1,,inactive
COc1ccc(S(=O)(=O)Nc2nnc(CC(C)C)s2)cc1,,inactive
Cn1ccc2cc3c(cc21)CCN3C(=O)Nc1cccnc1,inconclusive: 23 µM,
O=C(O)c1ccc(CO)o1,,inactive

# Target: Cellular tumor antigen p53 (Homo sapiens) (UniProt P04637)
# Test: TOX21_p53_BLA_p4_ratio: Tox21 HCT-116 p53 Agonism Beta-lactamase Assay, Ratio, Phase 4 (AID 2283601)
# Method in brief: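 HCT116 cells carrying an inducible beta-lactamase reporter were plated at 4000 cells/well, rested 5 h, then exposed to compounds in DMSO (217-fold dilution) for 16 h at 37C. CCF4-AM substrate was loaded 2 h at room temperature; 460/530 nm emission ratio scored gain-of-signal versus DMSO.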
Compound,AC50,outcome
Clc1ccc(Cn2c(CN3CCCC3)nc3ccccc32)cc1,inconclusive: 10.3 µM,
CCC(Cc1c(I)cc(I)c(O)c1I)C(=O)O (stereo not drawn),inconclusive: 12.2 µM,
CCOC(=O)NCCC[Si](OCC)(OCC)OCC,inconclusive: 46.1 µM,
Cc1onc(-c2ccccc2)c1C(=O)N[C@@H]1C(=O)N2[C@@H]1SC(C)(C)[C@@H]2C(=O)O,,inactive
CC(=O)c1ccc2c(c1)N(CCCN(C)C)c1ccccc1S2,inconclusive: 10.3 µM,
CN1C[C@H](C(=O)N[C@]2(C)O[C@@]3(O)[C@@H]4CCCN4C(=O)[C@H](Cc4ccccc4)N3C2=O)C[C@@H]2c3cccc4[nH]cc(c34)C[C@H]21,,inactive
CCN(Cc1ccccc1)c1ccccc1,,inactive
Clc1ccccc1-c1nc(-c2ccncc2)no1,inconclusive: 23 µM,
Nc1nc2c(ncn2CCC(CO)CO)c(=O)[nH]1,inconclusive: 23 µM,
O=C1OC(=O)C2CCCCC12 (stereo not drawn),inconclusive: 46 µM,
N[C@@H](C(=O)N[C@@H]1C(=O)N2C(C(=O)O)=C(CSc3cn[nH]n3)CS[C@H]12)c1ccc(O)cc1,inconclusive: 38 µM,
CCCCC(=O)OCC(=O)[C@H]1[C@H](C)C[C@H]2[C@@H]3C[C@H](F)C4=CC(=O)C=C[C@]4(C)[C@@]3(F)[C@@H](O)C[C@@]21C,inconclusive: 19.3 µM,
CC(=O)OC[C@H]1O[C@@H](n2ncc(=O)[nH]c2=O)[C@H](OC(C)=O)[C@@H]1OC(C)=O,active: 2.61 µM,
CCCCCCCCCCCCCCCC(=O)OC[C@@H](NC(=O)C(Cl)Cl)[C@H](O)c1ccc([N+](=O)[O-])cc1,inconclusive: 23 µM,
CCN1CCC[C@H]1CNC(=O)c1c(O)c(Cl)cc(Cl)c1OC,inconclusive: 23 µM,
CCCNCC(O)COc1ccccc1C(=O)CCc1ccccc1 (stereo not drawn),inconclusive: 23 µM,
O=C(O)c1ccc(CO)o1,,inactive
